Measurements reported in PubChem BioAssay AID1259314 (Drosophila RNAi Screening Center, 2017).

Assay: 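Modifiers of manganese chloride toxicity in fly cells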 (primary screen)
Cells: Drosophila S2R+ cells
Reagents: long dsRNA against Drosophila genes
Duration: 5 days (4 days knock-down, then 1 day metal exposure)
Conditions: manganese chloride added to 15 mM for 24 hours
Detection: 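Luciferase ATP signal used as a proxy for viable cell number, reported as one averaged z-score per dsRNA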
Scale: mean ATP z-score: higher = more ATP than the plate average, more viable cells under manganese
Rule for the call: 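a mean ATP z-score past 1.5 in either direction is called active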
Calls: active = strong ATP change, up or down; inactive = no strong ATP change
This is one part, drawn at random, of about 3,100 deposited reagents. Of all reagents, 289 (9.3%) got an active call. 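Active includes both higher and lower ATP than plate average; check the z-score sign for direction.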 Entries without a mark were called inactive. Reagents against one gene are numbered here. A plus sign joins genes that one reagent is predicted to hit. Not given: the amount of reagent.

Silencing of Gr58a resulted in: mean ATP z-score -0.147. Depletion of sit #1 resulted in: mean ATP z-score -0.307. sit #2 showed mean ATP z-score 0.371. Depletion of Atet #1 resulted in: mean ATP z-score -0.358. Atet #2 gave mean ATP z-score 0.308. mth #1 scored mean ATP z-score -0.31.

mth #2 gave mean ATP z-score -0.0679. Syx17 gave mean ATP z-score 1.51 (active). Atpalpha #1 showed mean ATP z-score 0.221. Depletion of Atpalpha #2 gave: mean ATP z-score -0.896. CG7384 scored mean ATP z-score 0.0794. Knock-down of CG5853 #1 came out at: mean ATP z-score 0.493.

Knock-down of CG5853 #2 gave: mean ATP z-score -0.668. For CG15880 #1, the entry reads mean ATP z-score -0.172. Depletion of CG15880 #2 resulted in: mean ATP z-score 0.611. For Or83a + CG1172 #1, the entry reads mean ATP z-score -0.322. For Or83a + CG1172 #2 the deposit lists mean ATP z-score -0.556. Against PK2-R2 #1 the deposit lists mean ATP z-score -0.351.

After knock-down of PK2-R2 #2, the record shows mean ATP z-score 0.683. After knock-down of SERCA #1, the screen gave mean ATP z-score 0.317. SERCA #2 gave mean ATP z-score -1.89 (active). kek1 #1 scored mean ATP z-score -0.319. kek1 #2 showed mean ATP z-score 0.189. Depletion of kek1 #3 gave: mean ATP z-score 0.386.

With knock-down of Tsp42Eg, the record shows mean ATP z-score 1.13. Tim17a2 #1 scored mean ATP z-score 0.518. Against Tim17a2 #2, the values are mean ATP z-score -0.735. Knock-down of PGAP2 #1 resulted in: mean ATP z-score 0.186. Knock-down of PGAP2 #2 gave: mean ATP z-score -0.463. CG11367 scored mean ATP z-score -1.33.

CG10081 #1 gave mean ATP z-score -0.914. With knock-down of CG10081 #2, the screen gave mean ATP z-score 1.36.

Records above whose gene name begins with A or a (4):
Atet #1 → mean ATP z-score = -0.358
Atet #2 → mean ATP z-score = 0.308
Atpalpha #1 → mean ATP z-score = 0.221
Atpalpha #2 → mean ATP z-score = -0.896
